PubChem BioAssay AID2551 (National Center for Advancing Translational Sciences (NCATS), 2010)
Out of some 310,000 compounds screened, about 17,000 (5.5%) were called active. The inconclusive results got no clear call from the source; some entries with a clear call stand among them for comparison. Calls come from the whole dose curve; as a rule, active = well fitted inhibition curve with a large enough effect; inconclusive = small, poorly fitted or top-dose-only effect, or effect the other way; inactive = no such curve, though single readings can be large or run the other way. Where the call is inconclusive, the potency comes from a doubtful curve fit.

Chains of the proteins cited; added tags and fusions are not shown. Lines headed by an entry give the natural chain unless they say otherwise; changes in a name come on top.
UniProt P51450: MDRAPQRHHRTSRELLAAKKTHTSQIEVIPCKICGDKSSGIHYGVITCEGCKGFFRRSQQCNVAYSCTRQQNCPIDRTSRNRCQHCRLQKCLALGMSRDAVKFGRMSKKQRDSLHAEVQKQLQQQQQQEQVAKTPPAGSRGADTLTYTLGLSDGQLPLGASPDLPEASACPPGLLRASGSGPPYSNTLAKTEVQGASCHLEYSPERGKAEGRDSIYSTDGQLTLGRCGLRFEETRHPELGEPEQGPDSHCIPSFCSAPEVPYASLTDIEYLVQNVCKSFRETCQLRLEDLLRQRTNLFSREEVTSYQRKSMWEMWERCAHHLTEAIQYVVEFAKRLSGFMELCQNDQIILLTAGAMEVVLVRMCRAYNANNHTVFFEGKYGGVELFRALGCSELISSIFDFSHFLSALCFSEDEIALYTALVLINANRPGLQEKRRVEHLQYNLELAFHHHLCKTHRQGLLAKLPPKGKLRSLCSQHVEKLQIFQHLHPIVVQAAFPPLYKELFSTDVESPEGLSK

What follows are molecules tested against Nuclear receptor ROR-gamma (Mus musculus) (UniProt P51450) (assay: qHTS for inhibitors of ROR gamma transcriptional activity). Settings: Drosophila S2 Gal4-RORgamma UAS-luciferase reporter, 20 h; activity change, negative = inhibition: at 53.6 µM (top of the series).
Outline: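 In this cell-based reporter format, copper sulfate (700 uM final) drives Gal4–ROR gamma fusion expression from a metallothionein promoter in Drosophila Schneider cells; compounds preincubated 1 hr, reporter read after 20 hr at ambient temperature.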
% is set by controls: 0 for no effect and ±100 for the full control effect; potency is the fitted concentration of half-maximal effect.
Note: nearly all actives have a fitted effect of over 60% in size.

Activity change, negative = inhibition, inactive:
O=C(CCC1CCCN(C(=O)CCCc2ccccc2)C1)N1CCN(c2ccccn2)CC1 (stereo not drawn) 39.4%
CCCC(C)c1nnc(NC(=O)C(=O)OCC)s1 (stereo not drawn) 1.04%
CCN(CC)CCCNC(=O)CNC(=S)N(CCCN1CCOCC1)Cc1cccs1 -2.58%
O=C1CCCC(=NCc2ccco2)C1 -3.35%
CCN(CC)S(=O)(=O)c1ccc(Cl)c(NC(=O)c2cc(Cl)ccc2Cl)c1 -18.6%
COc1ccc(CCN2CC(C(=O)NCCc3ccccc3C(F)(F)F)CCC2=O)cc1 (stereo not drawn) 29.7%
O=C(COC(=O)c1ccc(O)cc1)Nc1ccccc1-c1ccccc1 13.7% [at 10 µM]
COc1ccc(-c2cn3cccc(C)c3n2)cc1Br -25.4%
COCCCNC(=S)N1CCCN(c2nc3c(C)c(C)ccc3cc2C#N)CC1 -12.2%
CC1Cc2ccccc2N1C(=O)CSc1nn2c(=O)c(C(C)(C)C)nnc2s1 (stereo not drawn) -37.4%
O=C(COc1ccccc1)Nc1nnc(S(=O)(=O)Nc2ccccc2)s1 5.69%
Cc1ccc2cc3cc(C(=O)N4CCCCC4C)oc3nc2c1 (stereo not drawn) -14.2%
CC1CCCCN1CCCNC(=O)CN1C(=O)c2cccnc2Oc2ccc(Cl)cc21 (stereo not drawn) -23.9%
Cc1cc([N+](=O)[O-])nn1CCCC(=O)O 2.64%
NC(=O)N/N=C/c1ccc2cccc(OCc3ccccc3)c2n1 11.6%
CC1(C)CC2CC(C)(CN2S(=O)(=O)c2ccc(N)cc2)C1 (stereo not drawn) -1.14%
Cc1cc(C)n2nc(SCCC(=O)NCc3ccccc3)nc2n1 0.0282%
CC(C)CCn1c(=O)c2ccccc2n2c(CN3C(=O)NC4(CCC(C)CC4)C3=O)nnc12 (stereo not drawn) 16.2%
Cc1nc(C(=O)NC(C)C)nn1-c1cc(Cl)cc(Cl)c1 -1.48%

2 records drawn at random from the list so far, as already listed:
Activity change, negative = inhibition, inactive:
CCN(CC)CCCNC(=O)CNC(=S)N(CCCN1CCOCC1)Cc1cccs1 -2.58%
O=C1CCCC(=NCc2ccco2)C1 -3.35%

An excerpt from above in order of SMILES length, rising.
Activity change, negative = inhibition, inactive:
Cc1cc([N+](=O)[O-])nn1CCCC(=O)O 2.64%
CCN(CC)S(=O)(=O)c1ccc(Cl)c(NC(=O)c2cc(Cl)ccc2Cl)c1 -18.6%
O=C(CCC1CCCN(C(=O)CCCc2ccccc2)C1)N1CCN(c2ccccn2)CC1 (stereo not drawn) 39.4%

Next part.

Potency, active:
O=C(N/N=C/c1cn(-c2ccccc2)nc1-c1cccs1)c1ccccc1F 5.01 µM
O=[N+]([O-])c1ccc(C2Oc3ccccc3C3CC(c4ccccc4)=NN32)s1 (stereo not drawn) 11.2 µM
S=c1[nH]nc(Cc2cccs2)n1-c1ccccc1 11.2 µM
COc1cc(OC)cc(-c2n[nH]c(=S)n2-c2ccc3c(c2)OCCO3)c1 0.355 µM
O=[N+]([O-])c1ccc(O)c(/C=N/NC2=NS(=O)(=O)c3ccccc32)c1 1.26 µM
Cn1c(CNc2nc3ccccc3n2CCN2CCCCC2)nc2ccccc21 15.8 µM
Cc1ccc(-n2cc[nH]c2=S)c(C)c1 10 µM
COc1ccccc1-c1nnc(NC(=O)c2ccc3ncsc3c2)o1 0.501 µM
Cc1cccc(C(=O)NC(=S)Nc2ccc(Cc3ccncc3)cc2)c1 15.8 µM
CC(C)CCN(C(=S)Nc1cccc(F)c1)C(C)c1cccs1 (stereo not drawn) 20 µM
O=[N+]([O-])c1cc(C=Nc2ccc3ccccc3c2)ccc1Br 20 µM
C/C(=N\Nc1ncc(Cl)cc1Cl)c1cccs1 10 µM

Potency, inconclusive:
Cc1ccc(C)c(NC(=S)N2CCC(NC(=O)c3ccccc3)CC2)c1 31.6 µM [inhibitor, single point]
O=C(COC(=O)c1n[nH]c2ccccc12)c1cc(F)ccc1F 17.8 µM [activator, single point]
O=C(NC1CCCC1)c1ccc(COCC(F)(F)F)o1 0.708 µM [inhibitor, single point]
Cn1c2c(c(=O)n(C)c1=O)C(C(F)(F)F)(C(F)(F)F)N=C(CCC1CCCCC1)N2 31.6 µM [inhibitor, single point]
COc1cc(NC(=O)CN2C(=O)NC(c3ccccc3)(c3ccccc3)C2=O)cc(OC)c1 35.5 µM [activator, single point]
C=C1c2ccc(C)cc2NC(=O)N1c1ccccc1 25.1 µM [activator, single point]
CC(Nc1nc(N2CCCCC2)nc2ccccc12)c1ccccc1 (stereo not drawn) 17.8 µM [inhibitor, single point]
CCN(CC)S(=O)(=O)c1ccc2oc(Nc3ccccc3)nc2c1 20 µM [activator, single point]
CCOc1ccc(N(CC(=O)Nc2ccc(Br)cc2)S(C)(=O)=O)cc1 12.6 µM [activator, single point]
COC(=O)C1(C)NC(c2ccc(F)cc2)C2C(=O)N(c3ccccc3)C(=O)C21 (stereo not drawn) 0.398 µM [inhibitor, partial curve]
COc1cccc(C(=O)NC2CC3CCCC(C2)N3CC(=O)Nc2ccc(N(C)C)cc2)c1 (stereo not drawn) 22.4 µM [activator, single point]
C/C(=N\NC(=O)c1ccccc1O)C1CC1 15.8 µM [inhibitor, single point]
CCCc1ccc(OCc2ccc(C(=O)N3CCCC3)o2)cc1 17.8 µM [activator, partial curve]
C[C@H](NC(=O)OC(C)(C)C)c1nnc(SCC(=O)c2ccc(Cl)cc2)o1 14.1 µM [activator, single point]
S=c1[nH]nc(-c2cc(-c3ccsc3)n[nH]2)n1-c1cccc2ccccc12 2.24 µM [inhibitor, full curve, poor fit]
CCn1c(Sc2ccc(N)cc2Cl)nc2ccccc21 35.5 µM [inhibitor, single point]
Cc1ccc(C)c(SCC(=O)Nc2ccc(S(=O)(=O)Nc3ncccn3)cc2)c1 14.1 µM [activator, single point]
COc1ccc(SCC(Cc2ccccc2)N2CCN(CCc3ccccc3)CCC2=O)cc1 (stereo not drawn) 12.6 µM [activator, single point]
N#Cc1cccc(N=c2ssnc2Cl)c1 35.5 µM [inhibitor, single point]
CC1CCCN(C(=O)CCCn2c(=S)[nH]c3ccccc3c2=O)C1 (stereo not drawn) 31.6 µM [inhibitor, single point]
CCOC(=O)c1sc(=S)n(-c2ccc(Cl)cc2)c1SC 11.2 µM [inhibitor, single point]
CCOc1ccc(NC(=O)Cn2c(=O)oc3cc(Cl)ccc32)cc1 11.2 µM [activator, partial curve]
Cc1oc(C(C)(C)C)cc1C(=O)Nc1ccc(C(=O)O)cc1 7.08 µM [activator, full curve]
O=Cc1c(N2CCN(c3ccccc3)CC2)nc2ccccn2c1=O 35.5 µM [activator, single point]
O=c1[nH]c(C2CCN(S(=O)(=O)c3ccc(C(F)(F)F)cc3)CC2)nc2c1nnn2Cc1cccc(F)c1 25.1 µM [activator, single point]
O=C(CN(Cc1ccccc1)C(=O)c1cccc([N+](=O)[O-])c1)Nc1c(Cl)cc(Cl)cc1Cl 5.01 µM [inhibitor, single point]
Cc1ccc2nc(-c3ccc(N4C(=NC(=O)CCC(=O)O)SC5CS(=O)(=O)CC54)cc3)sc2c1 (stereo not drawn) 8.91 µM [activator, partial curve]
COCCNC(=O)CSc1nc2ccccc2c(=O)n1CCC(=O)NCCc1ccc(OC)c(OC)c1 5.62 µM [activator, single point]
O=C1OCCN1/N=C/c1ccc([N+](=O)[O-])o1 0.501 µM [activator, full curve, poor fit]
CCOc1ccc(-n2cc(C(=O)N3CCC(C)CC3)c3cc(OC)c(OC)cc3c2=O)cc1 14.1 µM [activator, single point]
CN(C)NC(=O)c1ccsc1NC(=O)c1ccc(S(=O)(=O)N2CCCC2)cc1 10 µM [inhibitor, partial curve, poor fit]
N/C(=N\OC(=O)c1ccc([N+](=O)[O-])cc1)c1cccnc1 35.5 µM [inhibitor, single point]
CS(=O)(=O)N1CCC(c2noc(-c3ccc(C(F)(F)F)cc3)n2)CC1 5.62 µM [activator, single point]
Cn1c(Cn2cnc([N+](=O)[O-])n2)nnc1SCC(=O)Nc1cccc(Cl)c1 12.6 µM [inhibitor, single point]
O=C(CN1CCOCC1)N1CCc2ccccc2C(c2ccccc2)C1 (stereo not drawn) 0.0045 µM [inhibitor, full curve, poor fit]
Cc1ccc(C)c(N2CCN(C(=O)CCn3c(=S)[nH]c4cc5c(cc4c3=O)OCO5)CC2)c1 6.31 µM [inhibitor, single point]
COc1cccc(/C=N/Nc2snc(SC)c2C#N)c1O 3.55 µM [activator, partial curve]
Clc1ccc(-n2ncc3c(N4CCCC4)ncnc32)cc1 3.16 µM [inhibitor, partial curve]
CC(=O)Nc1ccc(S(=O)(=O)Nc2ccc3c(c2)OCCO3)cc1 35.5 µM [activator, single point]
Cc1ccc(C(=O)c2oc3ccccc3c2NC(=O)c2cc(-c3cc(C)ccc3O)n[nH]2)cc1 6.31 µM [inhibitor, single point]
COC(=O)Cc1csc(Nc2ccc(F)c(Cl)c2)n1 14.1 µM [inhibitor, single point]
CN(C)S(=O)(=O)c1ccc(NC(=O)C2CCCN(C(=O)c3ccc(Cl)cc3)C2)cc1 (stereo not drawn) 12.6 µM [activator, partial curve]
